From publication PMC7297795
Results are given in words; binding and its absence hold for the method and conditions named. In cells and extracts the contact can be indirect. Some results given as binding are weak or reduced against the parent protein; the word gives no strength.

By UniProt entry, the sequences of proteins in these tests, tags left out.
UniProt Q13547: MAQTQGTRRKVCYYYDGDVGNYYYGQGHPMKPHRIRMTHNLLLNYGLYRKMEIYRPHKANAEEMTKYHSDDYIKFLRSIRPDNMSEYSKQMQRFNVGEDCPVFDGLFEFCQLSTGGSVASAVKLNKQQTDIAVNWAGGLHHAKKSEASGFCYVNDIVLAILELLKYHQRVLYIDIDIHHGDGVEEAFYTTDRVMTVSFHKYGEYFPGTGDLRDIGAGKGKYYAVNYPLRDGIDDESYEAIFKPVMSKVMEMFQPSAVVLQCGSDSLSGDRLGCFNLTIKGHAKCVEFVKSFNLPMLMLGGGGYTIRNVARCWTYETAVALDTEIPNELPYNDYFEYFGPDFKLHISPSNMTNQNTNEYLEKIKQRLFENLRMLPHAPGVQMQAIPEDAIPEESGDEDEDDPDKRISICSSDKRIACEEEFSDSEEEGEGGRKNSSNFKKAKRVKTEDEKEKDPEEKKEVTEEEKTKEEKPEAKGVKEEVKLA
UniProt Q13887: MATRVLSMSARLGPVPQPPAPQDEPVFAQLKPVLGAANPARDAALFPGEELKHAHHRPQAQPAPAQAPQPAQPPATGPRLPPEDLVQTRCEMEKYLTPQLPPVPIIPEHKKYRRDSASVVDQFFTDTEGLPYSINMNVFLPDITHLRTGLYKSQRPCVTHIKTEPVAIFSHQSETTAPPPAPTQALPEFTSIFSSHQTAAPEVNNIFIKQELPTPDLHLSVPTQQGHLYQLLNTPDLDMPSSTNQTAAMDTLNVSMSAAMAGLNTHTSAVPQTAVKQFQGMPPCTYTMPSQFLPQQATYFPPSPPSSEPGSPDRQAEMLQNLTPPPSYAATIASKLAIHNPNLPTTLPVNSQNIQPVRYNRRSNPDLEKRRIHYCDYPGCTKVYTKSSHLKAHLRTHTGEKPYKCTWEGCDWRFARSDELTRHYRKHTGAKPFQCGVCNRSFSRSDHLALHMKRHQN

Key:
HDAC1-Flag = HDAC1-Flag (UniProt Q13547); assay: co-IP; exogenous: 293T cells transiently transfected with pCMV3-HDAC1-Flag and HA-KLF5 for 48 h; detected by western blotting; IgG as negative control, input as positive control
[1] = target: HDAC1 (histone deacetylase 1), endogenous (human (endogenous in 22RV1 and PC-3)) (UniProt Q13547); assay: co-IP; endogenous proteins in 22RV1 and PC-3 cells; detected by western blotting; IgG as negative control, input as positive control

Row | binding (HDAC1-Flag) | binding [1] | Substance
1 | binds | – | HA-KLF5 (from UniProt Q13887 1-457)
2 | – | binds | KLF5 (Krüpple-like transcription factor 5), endogenous (from UniProt Q13887 1-457)
